From patent US8883827B2, “Azole derivatives as WTN pathway inhibitors” (Oslo University Hospital HF, priority 2009, dated 2014)

System: SW480 cells
Assay: Illumina microarray gene expression analysis
Format: cell-based
Conditions: p=0.02
Experimental: A microarray analysis using an Illumina® array was performed in triplicate to investigate differential gene expression in cells treated with a Wnt pathway inhibitor. […] In vitro transcription reactions were incubated overnight (14 hr). Labeled cRNA was hybridized to Illumina® Human-6 v3 BeadChips (Illumina, San Diego, Calif.) at 58° C. overnight, according to the Illumina® Whole-Genome Gene Expression Protocol for BeadStation (Doc. #11226030.rev.C, Illumina Inc.). The hybridized BeadChip was stained with streptavidin-Cy3 (Amersham™, PA43001) for visualization and scanned with an Illumina® BeadArray Reader. The scanned images were imported into BeadStudio 3.1.3.0 (Illumina Inc) for extraction and quality control. A criterion of 0.5-fold change in expression was applied to the analysis. […] A list of differentially expressed genes of interest is given below in tables 1 and 2. […] Many known Wnt target genes (column 3) were influenced in treated cells. Some genes were influenced that are also affected in Ls174T colorectal cancer cells expressing an inducible dominant negative form of TCF-4 (column 4) (van de Wetering et al., Mol. Cell. Biol. (2008) 28(8), p. 2732-44). Other influenced genes that are important for cell cycle control and other genes correlated to regulated canonical Wnt signaling are also shown. […]

**Q.** How did the “final hit numbers (differentially expressed genes)” value (25 μM compound) turn out when COc1ccc(-n2c(SCc3nc(-c4ccc(C)cc4)no3)nnc2-c2ccncc2)cc1 [Compound 1] was run?
**A.** 881 hits

**Q.** And the “final hit numbers (differentially expressed genes)” value ([…] compound (so in the source))?
**A.** 384 hits
